PubChem BioAssay AID1259308 – NCATS – 2017

- Assay: 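Knock-downs that increase output of a recombinant reporter protein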 (primary screen)
- Cell system: human HEK293 embryonic kidney cells stably expressing firefly luciferase (HEK-CMV-Luc2-Hygro)
- Reagent: single siRNA against human genes, 0.8 pmol siRNA per well
- Duration: 72 h
- Detection: 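Luciferase light (ONE-Glo) measured on one replicate plate set and viability (CellTiter-Glo) on the other, scaled to a negative control siRNA, with robust z-scores and luciferase per cell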
- Reading the numbers: total luciferase, z-score and total luciferase, % of control: higher = more reporter protein produced
- Hit rule: 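An siRNA counts as active if its total luciferase robust z-score exceeds 3; genes with two or more such siRNAs out of three were retested with fresh siRNAs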
- Meaning of the calls: active = raised luciferase; inactive = no rise
Shown is an unselected part of about 59,000 reagents tested. About 1,510 of all reagents (2.6%) were called active. 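Calls use total luciferase alone and ignore viability, so some active siRNAs may act by altering cell number.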 Entries without a mark were called inactive. The numbers tell different reagents against one gene apart. Further read-outs or replicates are left out here.

no.	target	reagent	total luciferase, z-score	total luciferase, % of control
1	ZNF33B	1	-0.693	68.1
2	ZNF33B	2	-0.401	73.9
3	ZNF33B	3	-1.92	43.7
4	EBF1	1	0.401	89.9
5	EBF1	2	-1.55	51.1
6	EBF1	3	0.92	100
7	FXYD2	1	0.943	101
8	FXYD2	2	0.237	86.6
9	FXYD2	3	2.13	124
10	CFAP263	1	-1.47	52.7
11	CFAP263	2	0.799	97.8
12	CFAP263	3	-0.444	73
13	CFAP97	1	0.802	97.8
14	CFAP97	2	0.219	86.2
15	CFAP97	3	-2.03	41.5
16	UTP6	1	-1.37	54.7
17	UTP6	2	-0.256	76.8
18	UTP6	3	-1.35	55.1
19	LOC728376	1	-0.521	71.5
20	LOC728376	2	0.827	98.3
21	LOC728376	3	0.67	95.2
22	NCALD	1	-0.298	76
23	NCALD	2	-0.178	78.3
24	NCALD	3	0.206	86
